# Reference: paper doi:10.1101/258194 (bioRxiv, 2018)
# Results are given in words; binding and its absence hold for the method and conditions named. Some entries that bind do so weakly or less than the wild type. Sequences can lack the tags named with a protein.
# T1: Zip2 C-terminal region (residues 499-704), yeast two-hybrid fusion (S. cerevisiae) (UniProt P53061)
# T1 sequence: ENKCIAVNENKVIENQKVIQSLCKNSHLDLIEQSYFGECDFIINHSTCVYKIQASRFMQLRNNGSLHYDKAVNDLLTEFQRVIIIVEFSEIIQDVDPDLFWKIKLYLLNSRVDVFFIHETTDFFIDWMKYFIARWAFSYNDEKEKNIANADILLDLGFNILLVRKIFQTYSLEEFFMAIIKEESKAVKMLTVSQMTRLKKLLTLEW
# Molecular target: T1, Zip2 C-terminal region (residues 499-704), yeast two-hybrid fusion (S. cerevisiae)
# Test: two-hybrid
binder,measurement,value
"Spo16, yeast two-hybrid fusion (protein, UniProt P17122 1-198) MSEFFWDVQKIQEISNVEEHSVVKCVTVNTSRLISQLNEELQDEESGVNFIVTQLQLLINNVYEKIQKSPGVPAHRSLMINLNFTRLKFSIAYWDILLERSLDLINGPSKTGARYFITEVTPVDRSRYVENNQYFLAFKANQRLTRNSVDMDEFIDFEILIKQIIFDLFKKNGIPDQDFEAILSRFHNLESLVVAFNE",binding,binds
